Measured values from publication PMC11890858.
Results are given in words; binding and its absence hold for the method and conditions named. Binding seen in cells or lysates may run through a third protein.

Chains of the proteins cited; added tags and fusions are not shown.
UniProt P19532: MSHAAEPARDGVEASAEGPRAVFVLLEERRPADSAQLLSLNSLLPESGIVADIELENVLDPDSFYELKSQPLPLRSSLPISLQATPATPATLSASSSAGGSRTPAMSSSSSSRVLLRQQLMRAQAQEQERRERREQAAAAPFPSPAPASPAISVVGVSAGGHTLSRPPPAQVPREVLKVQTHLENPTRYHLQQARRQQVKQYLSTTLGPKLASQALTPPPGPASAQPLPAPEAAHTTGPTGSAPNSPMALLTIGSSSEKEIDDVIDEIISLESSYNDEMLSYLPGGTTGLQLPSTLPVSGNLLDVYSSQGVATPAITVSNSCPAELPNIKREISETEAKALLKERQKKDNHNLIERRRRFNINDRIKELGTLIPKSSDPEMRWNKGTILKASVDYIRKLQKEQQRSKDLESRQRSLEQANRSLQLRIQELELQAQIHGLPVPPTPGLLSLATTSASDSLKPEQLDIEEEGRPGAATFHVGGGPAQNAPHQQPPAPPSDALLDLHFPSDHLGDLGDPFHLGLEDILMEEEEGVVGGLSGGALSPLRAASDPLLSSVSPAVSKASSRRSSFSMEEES
UniProt P19484: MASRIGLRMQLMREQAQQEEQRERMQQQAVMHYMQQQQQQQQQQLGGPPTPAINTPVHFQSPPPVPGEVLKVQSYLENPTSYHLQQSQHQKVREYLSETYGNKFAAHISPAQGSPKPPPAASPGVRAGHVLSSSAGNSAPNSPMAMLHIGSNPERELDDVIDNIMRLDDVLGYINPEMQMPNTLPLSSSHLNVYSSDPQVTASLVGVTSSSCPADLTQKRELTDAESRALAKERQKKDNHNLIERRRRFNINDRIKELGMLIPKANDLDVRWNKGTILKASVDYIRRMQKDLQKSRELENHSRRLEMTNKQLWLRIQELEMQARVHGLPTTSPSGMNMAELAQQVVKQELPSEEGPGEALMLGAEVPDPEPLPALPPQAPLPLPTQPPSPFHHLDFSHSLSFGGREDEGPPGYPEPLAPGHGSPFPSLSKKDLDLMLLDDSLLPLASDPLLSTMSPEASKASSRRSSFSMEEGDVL

Assays:
[1] = target: TFE3 (UniProt P19532); assay: co-IP; co-immunoprecipitation from cells under physiological conditions or under amino acid starvation (AA-star) stress; bait and cell line not stated in the main text
[2] = target: TFEB (UniProt P19484); assay: as above

- binding [1]: no binding
- binding [2]: no binding
B1: Menin (protein, UniProt O00255 1-610)
chain: MGLKAAQKTLFPLRSIDDVVRLFAAELGREEPDLVLLSLVLGFVEHFLAVNRVIPTNVPELTFQPSPAPDPPGGLTYFPVADLSIIAALYARFTAQIRGAVDLSLYPREGGVSSRELVKKVSDVIWNSLSRSYFKDRAHIQSLFSFITGTKLDSSGVAFAVVGACQALGLRDVHLALSEDHAWVVFGPNGEQTAEVTWHGKGNEDRRGQTVNAGVAERSWLYLKGSYMRCDRKMEVAFMVCAINPSIDLHTDSLELLQLQQKLLWLLYDLGHLERYPMALGNLADLEELEPTPGRPDPLTLYHKGIASAKTYYRDEHIYPYMYLAGYHCRNRNVREALQAWADTATVIQDYNYCREDEEIYKEFFEVANDVIPNLLKEAASLLEAGEERPGEQSQGTQSQGSALQDPECFAHLLRFYDGICKWEEGSPTPVLHVGWATFLVQSLGRFEGQVRQKVRIVSREAEAAEAEEPWGEEAREGRRRGPRRESKPEEPPPPKKPALDKGLGTGQGAVSGPPRKPPGTVAGTARGPEGGSTAQVPAPTASPPPEGPVLTFQSEKMKGMKELLVATKINSSAIKLQLTAQSQVQMKKQKVSTPSDYTLSFLKRQRKGL
